Test results taken from article PMC2859746.
No constants are given. Whether binding was seen depends on the method and setting. Binding seen in cells or lysates may run through a third protein. Some results given as binding are weak or reduced against the parent protein; the word gives no strength. For part of these data: Where a sequence is shown, tags or fusion partners need not be part of it.

The chains behind the UniProt entries cited, without tags or fusion partners. Where a name states a change or a piece, a line headed by the entry shows the natural chain unless it says otherwise.
UniProt O00716: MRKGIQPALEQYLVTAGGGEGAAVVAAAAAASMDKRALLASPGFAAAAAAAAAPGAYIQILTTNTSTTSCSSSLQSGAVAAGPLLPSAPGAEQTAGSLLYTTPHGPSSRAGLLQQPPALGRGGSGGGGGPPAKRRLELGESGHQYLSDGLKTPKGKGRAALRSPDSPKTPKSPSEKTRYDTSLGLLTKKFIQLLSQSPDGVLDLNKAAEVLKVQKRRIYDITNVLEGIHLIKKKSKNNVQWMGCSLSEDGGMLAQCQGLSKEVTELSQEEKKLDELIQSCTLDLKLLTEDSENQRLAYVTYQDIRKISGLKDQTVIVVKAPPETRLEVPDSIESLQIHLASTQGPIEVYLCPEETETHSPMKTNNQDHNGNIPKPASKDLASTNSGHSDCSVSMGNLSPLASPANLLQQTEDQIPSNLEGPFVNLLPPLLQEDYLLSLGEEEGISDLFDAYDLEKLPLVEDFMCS

T1: GST-RB^ΔL, large pocket of pRB (amino acids 379 to 928) with I753A, N757A and M761A (human) (UniProt P06400)
T1 sequence: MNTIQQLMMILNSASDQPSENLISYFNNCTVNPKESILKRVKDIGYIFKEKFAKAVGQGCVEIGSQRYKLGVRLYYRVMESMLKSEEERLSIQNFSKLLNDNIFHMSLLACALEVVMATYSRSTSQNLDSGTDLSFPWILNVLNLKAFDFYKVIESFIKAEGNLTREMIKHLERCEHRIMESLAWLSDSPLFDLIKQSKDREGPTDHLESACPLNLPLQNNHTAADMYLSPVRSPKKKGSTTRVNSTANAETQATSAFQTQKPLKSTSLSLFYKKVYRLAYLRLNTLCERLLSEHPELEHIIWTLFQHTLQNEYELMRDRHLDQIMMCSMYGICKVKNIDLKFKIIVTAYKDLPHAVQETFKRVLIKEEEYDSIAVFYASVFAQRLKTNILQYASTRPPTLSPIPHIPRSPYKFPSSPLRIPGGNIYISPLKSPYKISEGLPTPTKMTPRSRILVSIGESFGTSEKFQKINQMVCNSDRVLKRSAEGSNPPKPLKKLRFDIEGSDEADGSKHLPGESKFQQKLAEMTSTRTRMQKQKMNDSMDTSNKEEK

T2: GST-RB^M704V, large pocket of pRB (amino acids 379 to 928) with M704V (human) (UniProt P06400)
T2 sequence: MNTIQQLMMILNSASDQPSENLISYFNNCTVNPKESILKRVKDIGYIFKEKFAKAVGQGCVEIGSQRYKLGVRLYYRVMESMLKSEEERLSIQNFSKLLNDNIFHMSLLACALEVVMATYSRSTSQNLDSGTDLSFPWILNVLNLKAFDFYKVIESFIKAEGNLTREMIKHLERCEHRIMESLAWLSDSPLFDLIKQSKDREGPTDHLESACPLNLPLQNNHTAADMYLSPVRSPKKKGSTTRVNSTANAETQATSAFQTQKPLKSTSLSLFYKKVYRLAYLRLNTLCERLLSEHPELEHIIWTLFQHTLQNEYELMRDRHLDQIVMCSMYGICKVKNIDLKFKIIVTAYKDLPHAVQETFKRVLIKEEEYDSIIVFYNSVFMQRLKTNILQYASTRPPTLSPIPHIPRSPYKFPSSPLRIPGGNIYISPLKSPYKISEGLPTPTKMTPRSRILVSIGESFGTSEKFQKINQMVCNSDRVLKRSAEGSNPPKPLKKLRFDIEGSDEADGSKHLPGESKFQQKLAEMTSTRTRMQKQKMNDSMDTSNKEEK

T3: GST-RB, large pocket of pRB (amino acids 379 to 928), wild type (human) (UniProt P06400)
T3 sequence: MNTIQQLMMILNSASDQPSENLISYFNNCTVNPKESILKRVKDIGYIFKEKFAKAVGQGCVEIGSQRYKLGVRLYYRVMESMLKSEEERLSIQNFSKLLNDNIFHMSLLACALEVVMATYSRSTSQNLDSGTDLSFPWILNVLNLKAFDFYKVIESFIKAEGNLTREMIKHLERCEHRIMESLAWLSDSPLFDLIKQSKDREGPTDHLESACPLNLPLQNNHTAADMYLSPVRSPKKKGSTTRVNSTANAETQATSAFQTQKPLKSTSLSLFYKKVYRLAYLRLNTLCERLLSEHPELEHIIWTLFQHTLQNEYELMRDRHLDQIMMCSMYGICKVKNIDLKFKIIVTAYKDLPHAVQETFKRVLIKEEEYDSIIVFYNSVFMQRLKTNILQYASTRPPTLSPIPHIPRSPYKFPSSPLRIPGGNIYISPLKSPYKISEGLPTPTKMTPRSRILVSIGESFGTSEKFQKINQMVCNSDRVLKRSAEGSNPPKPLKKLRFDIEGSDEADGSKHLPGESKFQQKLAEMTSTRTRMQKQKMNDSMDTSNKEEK


Assays:
[1] = target: T1, GST-RB^ΔL, large pocket of pRB (amino acids 379 to 928) with I753A, N757A and M761A (human); experiment: pull-down; recombinant GST-RB proteins incubated with whole-cell extracts from C33A cells transfected with CMV-HA-E2F3 and CMV-HA-DP1, or CMV-TAg; bound proteins detected by western blotting (12CA5 or PAb419); only the target purified
[2] = target: T2, GST-RB^M704V, large pocket of pRB (amino acids 379 to 928) with M704V (human); experiment: as above
[3] = target: T3, GST-RB, large pocket of pRB (amino acids 379 to 928), wild type (human); experiment: as above
HA-E2F3/HA-DP1 = HA-E2F3/HA-DP1 (UniProt O00716); experiment: co-IP; C33A cells co-transfected with CMV-RB constructs and CMV-TAg or CMV-HA-E2F3 and CMV-HA-DP1; precipitation with PAb419 (TAg) or 12CA5 (HA); bound pRB detected by western blotting with G3-245

Molecule | binding [1] | binding [2] | binding [3] | binding (HA-E2F3/HA-DP1)
HA-E2F3/HA-DP1 (from UniProt O00716 1-465; Q14186 1-410) (complex) | binds | binds | binds | 
pRB^ΔL, full-length pRB with I753A, N757A and M761A (CMV-RB^ΔL) (protein, UniProt P06400 1-928) MPPKTPRKTAATAAAAAAEPPAPPPPPPPEEDPEQDSGPEDLPLVRLEFEETEEPDFTALCQKLKIPDHVRERAWLTWEKVSSVDGVLGGYIQKKKELWGICIFIAAVDLDEMSFTFTELQKNIEISVHKFFNLLKEIDTSTKVDNAMSRLLKKYDVLFALFSKLERTCELIYLTQPSSSISTEINSALVLKVSWITFLLAKGEVLQMEDDLVISFQLMLCVLDYFIKLSPPMLLKEPYKTAVIPINGSPRTPRRGQNRSARIAKQLENDTRIIEVLCKEHECNIDEVKNVYFKNFIPFMNSLGLVTSNGLPEVENLSKRYEEIYLKNKDLDARLFLDHDKTLQTDSIDSFETQRTPRKSNLDEEVNVIPPHTPVRTVMNTIQQLMMILNSASDQPSENLISYFNNCTVNPKESILKRVKDIGYIFKEKFAKAVGQGCVEIGSQRYKLGVRLYYRVMESMLKSEEERLSIQNFSKLLNDNIFHMSLLACALEVVMATYSRSTSQNLDSGTDLSFPWILNVLNLKAFDFYKVIESFIKAEGNLTREMIKHLERCEHRIMESLAWLSDSPLFDLIKQSKDREGPTDHLESACPLNLPLQNNHTAADMYLSPVRSPKKKGSTTRVNSTANAETQATSAFQTQKPLKSTSLSLFYKKVYRLAYLRLNTLCERLLSEHPELEHIIWTLFQHTLQNEYELMRDRHLDQIMMCSMYGICKVKNIDLKFKIIVTAYKDLPHAVQETFKRVLIKEEEYDSIAVFYASVFAQRLKTNILQYASTRPPTLSPIPHIPRSPYKFPSSPLRIPGGNIYISPLKSPYKISEGLPTPTKMTPRSRILVSIGESFGTSEKFQKINQMVCNSDRVLKRSAEGSNPPKPLKKLRFDIEGSDEADGSKHLPGESKFQQKLAEMTSTRTRMQKQKMNDSMDTSNKEEK |  |  |  | binds
pRB^M704V, full-length pRB with M704V (CMV-RB^M704V) (protein, UniProt P06400 1-928) MPPKTPRKTAATAAAAAAEPPAPPPPPPPEEDPEQDSGPEDLPLVRLEFEETEEPDFTALCQKLKIPDHVRERAWLTWEKVSSVDGVLGGYIQKKKELWGICIFIAAVDLDEMSFTFTELQKNIEISVHKFFNLLKEIDTSTKVDNAMSRLLKKYDVLFALFSKLERTCELIYLTQPSSSISTEINSALVLKVSWITFLLAKGEVLQMEDDLVISFQLMLCVLDYFIKLSPPMLLKEPYKTAVIPINGSPRTPRRGQNRSARIAKQLENDTRIIEVLCKEHECNIDEVKNVYFKNFIPFMNSLGLVTSNGLPEVENLSKRYEEIYLKNKDLDARLFLDHDKTLQTDSIDSFETQRTPRKSNLDEEVNVIPPHTPVRTVMNTIQQLMMILNSASDQPSENLISYFNNCTVNPKESILKRVKDIGYIFKEKFAKAVGQGCVEIGSQRYKLGVRLYYRVMESMLKSEEERLSIQNFSKLLNDNIFHMSLLACALEVVMATYSRSTSQNLDSGTDLSFPWILNVLNLKAFDFYKVIESFIKAEGNLTREMIKHLERCEHRIMESLAWLSDSPLFDLIKQSKDREGPTDHLESACPLNLPLQNNHTAADMYLSPVRSPKKKGSTTRVNSTANAETQATSAFQTQKPLKSTSLSLFYKKVYRLAYLRLNTLCERLLSEHPELEHIIWTLFQHTLQNEYELMRDRHLDQIVMCSMYGICKVKNIDLKFKIIVTAYKDLPHAVQETFKRVLIKEEEYDSIIVFYNSVFMQRLKTNILQYASTRPPTLSPIPHIPRSPYKFPSSPLRIPGGNIYISPLKSPYKISEGLPTPTKMTPRSRILVSIGESFGTSEKFQKINQMVCNSDRVLKRSAEGSNPPKPLKKLRFDIEGSDEADGSKHLPGESKFQQKLAEMTSTRTRMQKQKMNDSMDTSNKEEK |  |  |  | binds
retinoblastoma protein (pRB), full-length wild type (CMV-RB) (protein, UniProt P06400 1-928) MPPKTPRKTAATAAAAAAEPPAPPPPPPPEEDPEQDSGPEDLPLVRLEFEETEEPDFTALCQKLKIPDHVRERAWLTWEKVSSVDGVLGGYIQKKKELWGICIFIAAVDLDEMSFTFTELQKNIEISVHKFFNLLKEIDTSTKVDNAMSRLLKKYDVLFALFSKLERTCELIYLTQPSSSISTEINSALVLKVSWITFLLAKGEVLQMEDDLVISFQLMLCVLDYFIKLSPPMLLKEPYKTAVIPINGSPRTPRRGQNRSARIAKQLENDTRIIEVLCKEHECNIDEVKNVYFKNFIPFMNSLGLVTSNGLPEVENLSKRYEEIYLKNKDLDARLFLDHDKTLQTDSIDSFETQRTPRKSNLDEEVNVIPPHTPVRTVMNTIQQLMMILNSASDQPSENLISYFNNCTVNPKESILKRVKDIGYIFKEKFAKAVGQGCVEIGSQRYKLGVRLYYRVMESMLKSEEERLSIQNFSKLLNDNIFHMSLLACALEVVMATYSRSTSQNLDSGTDLSFPWILNVLNLKAFDFYKVIESFIKAEGNLTREMIKHLERCEHRIMESLAWLSDSPLFDLIKQSKDREGPTDHLESACPLNLPLQNNHTAADMYLSPVRSPKKKGSTTRVNSTANAETQATSAFQTQKPLKSTSLSLFYKKVYRLAYLRLNTLCERLLSEHPELEHIIWTLFQHTLQNEYELMRDRHLDQIMMCSMYGICKVKNIDLKFKIIVTAYKDLPHAVQETFKRVLIKEEEYDSIIVFYNSVFMQRLKTNILQYASTRPPTLSPIPHIPRSPYKFPSSPLRIPGGNIYISPLKSPYKISEGLPTPTKMTPRSRILVSIGESFGTSEKFQKINQMVCNSDRVLKRSAEGSNPPKPLKKLRFDIEGSDEADGSKHLPGESKFQQKLAEMTSTRTRMQKQKMNDSMDTSNKEEK |  |  |  | binds
